This passage reports median seed-adjusted z-score results from PubChem BioAssay AID1347426 (Functional Genomics Laboratory (NCATS/FGL), 2020).

Among all 31,000 sequences or so, about 1,400 (4.5%) were called active.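 How the source made its calls: active means median seed-adjusted z-score above 1 or below -1; inactive means the rest.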 This is one part of the list.

This assay is described as follows: Novel Modifiers of Survival Motor Neuron (SMN) Protein: Gene Identification via Genome-wide siRNA Screen. The following applies: HEK293T SMN2-luciferase reporter, siRNA knockdown, 72 h; actives lie on both sides. The source says: Spinal muscular atrophy (SMA) is the most common neuromuscular autosomal recessive disorder and one of the leading genetic causes of infant death. SMA results from mutations inducing loss of function or deletion in the survival of motor neuron-1 gene (SMN1), leading to deficiency of the survival motor neuron (SMN) protein. Although a second nearly identical gene, SMN2, is retained in humans, its expression primarily produces an aberrantly spliced isoform that is largely unstable and quickly degraded. We performed a genome-wide RNAi screen using a cell-based reporter assay to identify genes and pathways that modulate SMN protein stability. The screen identified over 200 genes that led to the greatest increase or decrease in luciferase expression.
Using HEK293T cells stably expressing a luciferase reporter that combines the promoter and splicing based cassettes in tandem with the major portion of the native SMN2 cDNA with luciferase, we performed a genome-wide RNAi screen to identify modulators of SMN protein levels. Luciferase is expressed when full-length SMN protein is generated with luminescence signal proportional to SMN protein levels. Our luciferase-based reporter assay was used to screen Ambion Silencer Select Human Druggable Genome siRNA library (10418 genes, 3 unique siRNAs per gene) using lipid-based reverse transfection.
Briefly, 1 pmol of each siRNA was spotted to a well of a 384-well plate (Corning, Corning, NY) and 20 microL of serum-free DMEM containing […] of Lipofectamine RNAiMax (Life Technologies, Carlsbad, CA) was then added to each well. Transfected cells were maintained at 37 degrees C in 5% CO2 for 72 hours, 20 microL of ONE-Glo Reagent (Promega) was added to wells for luciferase quantification. Raw luminescence reads were normalized to Ambion(R) Silencer(R) Negative Control #2 siRNA, then log10 transformed. A robust statistical measure of median absolute deviation (MAD) to standardize siRNA activities from each screen. Common Seed Analysis was used to help prioritize clean hits as opposed to those appearing to arise from seed based off-target effects. Candidate modulators were defined as the genes having a MAD score greater than 1.0 or less than -1.0.
Background: In a reporter assay the amount or activity of a reporter protein is the signal.
As for AGGUGGAAGAUCUUAAAAATT against USF1, the median seed-adjusted z-score is inactive: 0.16.

For the sequence CGUGGGAUGGGAUGAAAGATT against NDUFB11, the median seed-adjusted z-score was inactive: 0.014.

On to CUACUGGUGUAUUACAUGATT against XK, for which the median seed-adjusted z-score is inactive: 0.403.

On to GCUAGUAUCUCUUAUCUCATT against SLC18A2, for which the median seed-adjusted z-score is inactive: 0.777.

On to CAAAGGACCUUGUCUGGUUTT against SPDYA, for which the median seed-adjusted z-score is inactive: 0.351.

In the case of GCAUCGACUAUGAUGAGUUTT against TNNC1, the median seed-adjusted z-score is inactive: 0.442.

Regarding GCAUCUACAAGGUUGUGAATT against UHRF1, the median seed-adjusted z-score is inactive: 0.231.

Consider CGGCUCCUCUUACAACUAUTT against KCTD5, for which the median seed-adjusted z-score was inactive: -0.748.

On to CCAUCACGGUCUCAGCUCATT against CPNE1, for which the median seed-adjusted z-score is inactive: -0.0206.

Consider GAUUGAAGAGGGCAGUAAATT against SHROOM2, for which the median seed-adjusted z-score is inactive: 0.11.

Turning to GGUUAGAGACUUGACAAUATT against DARS, the median seed-adjusted z-score is inactive: 0.

With CAGUGGAUCAAAUAACGCATT against ADAMTS20, the median seed-adjusted z-score was active: 1.44.

For GACCGGCUAUUCGAAAUUATT against TNFRSF21, the median seed-adjusted z-score was inactive: 0.225.

Regarding GACCAUGAAUUUCAUUGUATT against MYLK3, the median seed-adjusted z-score is inactive: 0.316.

GGACCGAAAUUCCUUCGAATT against FAT1: the median seed-adjusted z-score was inactive: -0.00397.

CAGUUUCAAUUAAAUCGAUTT against HELZ: the median seed-adjusted z-score is inactive: 0.0778.

Consider CCCUUGAAGGCAAAGAUCATT against OPRK1, for which the median seed-adjusted z-score is active: -1.08.

Consider CCAAAGCCCUGUCUAUCUATT against ZNF547, for which the median seed-adjusted z-score was inactive: 0.099.

Take CGUACAUCCAGUGACCCUATT against MTMR4: the median seed-adjusted z-score was inactive: -0.735.

On to GGCAAUACCUGUCUGGACATT against SIRPB2, for which the median seed-adjusted z-score is inactive: 0.

Turning to GCAAGGCGGUGUUUAUGGATT against DLX1, the median seed-adjusted z-score is inactive: 0.0356.

For the sequence GCGUGAACACUUCAUGUCATT against PDSS2, the median seed-adjusted z-score is inactive: 0.111.

In the case of GUGUGGAACUUGGACAAAATT against NETO1, the median seed-adjusted z-score is inactive: 0.0504.

For GGAUGUUCGUCAUAUUGAATT against IRAK3, the median seed-adjusted z-score was inactive: 0.155.

Regarding GAAUGACCAGAGACAUCUATT against INSR, the median seed-adjusted z-score was inactive: 0.172.

With CCUUUAGACAGAUUAGACATT against ZNF642, the median seed-adjusted z-score is inactive: 0.169.

As for GCAACAAGAGAGUACAAGATT against TNPO1, the median seed-adjusted z-score is inactive: 0.688.

Turning to GCACAAACCUCACAAGUCATT against ZNF554, the median seed-adjusted z-score is inactive: 0.0311.

Turning to CCACAAUUAGAGAUCUUUATT against THUMPD2, the median seed-adjusted z-score is inactive: -0.129.

Regarding CUCUGCCUCUCUACCCUUATT against F2RL1, the median seed-adjusted z-score was inactive: 0.138.

On to GGCUAGCCCUAGUAUGGAATT against CCAR1, for which the median seed-adjusted z-score is active: -1.18.

Regarding GAAUUACUGCAACGAAAUATT against PDCD6IP, the median seed-adjusted z-score was inactive: 0.

As to GCUGGAAGCUGUGAAGUCATT against NR1I3, the median seed-adjusted z-score was inactive: 0.000933.

GAAUUACGAGCAGAACAAATT against CHSY1: the median seed-adjusted z-score is inactive: 0.247.

On to GCAUACCAGUGUUUCCUCATT against CRNN, for which the median seed-adjusted z-score was inactive: -0.0758.

Take GACUUUCACUACAAGCAGATT against DUSP9: the median seed-adjusted z-score was inactive: 0.61.

Take GCGUGAAUGAGGUGGAUUATT against ETNK2: the median seed-adjusted z-score is inactive: -0.74.

Turning to CAAAUUGAUAGAUCCCAAATT against HNRPDL, the median seed-adjusted z-score was inactive: -0.68.

On to GGAGCAAGCGGGUUGUUAUTT against CAMK2N1, for which the median seed-adjusted z-score is inactive: 0.

GGAAGGUUGCUAUAGUGGATT against SSX2IP: the median seed-adjusted z-score is inactive: -0.0799.

In the case of GCGUGAUACUGUACGCAGATT against PROS1, the median seed-adjusted z-score is inactive: 0.436.

Turning to GCUGCUUAAGAGAUACUGATT against PRKCQ, the median seed-adjusted z-score is inactive: 0.692.

With GCAGUUACCCGCAUACCAATT against CALCR, the median seed-adjusted z-score is inactive: -0.404.

For GCAACAUCAUUGUGAUUUUTT against GPR21, the median seed-adjusted z-score was inactive: 0.246.

Regarding CGGUAUCUAUGACACUGCATT against SLC25A5, the median seed-adjusted z-score was inactive: -0.0501.

Take GACAUAUGCAAGAACUAUATT against PSAP: the median seed-adjusted z-score was inactive: 0.107.

As for GGACAUGAACCUAGAGUAATT against RBM45, the median seed-adjusted z-score was inactive: -0.234.

In the case of CACUACAACUCAUCCAACATT against GCDH, the median seed-adjusted z-score is inactive: -0.0391.

As to GAGUUCGUCGAAUCCCAAATT against SETMAR, the median seed-adjusted z-score was inactive: 0.191.

As for GCUUCUAACAUCAAGAUGATT against GABRR3, the median seed-adjusted z-score was inactive: 0.368.

Turning to GGAGCAUAAAGUAGACCGATT against ABCA10, the median seed-adjusted z-score was inactive: -0.104.

AGCUACAAUUUGAAAGAGATT against RNF144A: the median seed-adjusted z-score is inactive: -0.185.

Regarding GUAGAGUGCUUCAACAAGATT against ECH1, the median seed-adjusted z-score was inactive: 0.0348.

For the sequence UCUUCGUGGUCACCAGUAATT against FUT2, the median seed-adjusted z-score was inactive: -0.878.
